The list shows a part of the results. Hit calls seldom repeat between salt and free forms of one compound.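 In K562 cells expressing nanoluciferase-fused kinases, luminescence was recorded at 4 h intervals between 2 and 18 h, normalized as percent of control with DMSO at 100% and a positive control at 0%. A significant (2 sigma) signal drop marks a time point as decreased. The authors' rule for a hit is not shown and takes in more than the number of time points.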
How the values were obtained:
Assay in all cases: kinase-Nluc reporter destabilization hit call (1 = scored as downregulated) (binary); higher = compound decreases kinase abundance
Conditions in all cases: K562; 2-18 h
EGFR = EGFR (UniProt P00533)
EGFR_G719S = EGFR_G719S (UniProt P00533)
EGFR_G719S_T790M = EGFR_G719S_T790M (UniProt P00533)
EGFR_L718V = EGFR_L718V (UniProt P00533)
EGFR_L858R = EGFR_L858R (UniProt P00533)
EGFR_L861Q = EGFR_L861Q (UniProt P00533)
EGFR_T790M = EGFR_T790M (UniProt P00533)
EPHA2 = EPHA2 (UniProt P29317)
ERBB3 = ERBB3 (UniProt P21860)
[1] = target: ERBB4_R711C (clone: ERBB4_mut) (UniProt Q15303)

Chains of the proteins cited; added tags and fusions are not shown.
UniProt P29317, whole entry: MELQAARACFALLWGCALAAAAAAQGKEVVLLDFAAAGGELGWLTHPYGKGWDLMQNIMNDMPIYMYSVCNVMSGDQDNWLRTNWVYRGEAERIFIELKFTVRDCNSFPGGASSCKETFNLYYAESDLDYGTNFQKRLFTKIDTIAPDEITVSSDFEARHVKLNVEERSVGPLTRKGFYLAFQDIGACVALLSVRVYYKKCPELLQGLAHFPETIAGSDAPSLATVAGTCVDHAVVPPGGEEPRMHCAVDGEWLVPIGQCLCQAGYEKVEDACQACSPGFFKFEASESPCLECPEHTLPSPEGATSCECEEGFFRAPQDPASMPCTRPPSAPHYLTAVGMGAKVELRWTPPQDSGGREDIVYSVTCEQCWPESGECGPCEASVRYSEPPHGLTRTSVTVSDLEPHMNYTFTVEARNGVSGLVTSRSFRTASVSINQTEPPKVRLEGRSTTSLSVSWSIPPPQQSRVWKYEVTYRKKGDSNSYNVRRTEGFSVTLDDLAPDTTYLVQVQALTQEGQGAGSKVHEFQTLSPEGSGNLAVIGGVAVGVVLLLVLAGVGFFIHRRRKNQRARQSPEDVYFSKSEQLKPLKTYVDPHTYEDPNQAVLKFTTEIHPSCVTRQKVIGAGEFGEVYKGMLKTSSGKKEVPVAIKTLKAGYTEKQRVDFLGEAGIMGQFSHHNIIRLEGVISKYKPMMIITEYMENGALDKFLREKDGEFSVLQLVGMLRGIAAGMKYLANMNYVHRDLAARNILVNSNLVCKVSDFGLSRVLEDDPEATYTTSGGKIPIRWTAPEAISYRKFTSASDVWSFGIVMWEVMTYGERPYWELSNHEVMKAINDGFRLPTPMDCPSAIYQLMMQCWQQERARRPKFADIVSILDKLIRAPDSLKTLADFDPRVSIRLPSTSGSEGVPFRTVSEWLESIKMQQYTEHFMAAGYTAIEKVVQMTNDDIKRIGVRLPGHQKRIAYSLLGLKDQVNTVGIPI
UniProt P21860, whole entry: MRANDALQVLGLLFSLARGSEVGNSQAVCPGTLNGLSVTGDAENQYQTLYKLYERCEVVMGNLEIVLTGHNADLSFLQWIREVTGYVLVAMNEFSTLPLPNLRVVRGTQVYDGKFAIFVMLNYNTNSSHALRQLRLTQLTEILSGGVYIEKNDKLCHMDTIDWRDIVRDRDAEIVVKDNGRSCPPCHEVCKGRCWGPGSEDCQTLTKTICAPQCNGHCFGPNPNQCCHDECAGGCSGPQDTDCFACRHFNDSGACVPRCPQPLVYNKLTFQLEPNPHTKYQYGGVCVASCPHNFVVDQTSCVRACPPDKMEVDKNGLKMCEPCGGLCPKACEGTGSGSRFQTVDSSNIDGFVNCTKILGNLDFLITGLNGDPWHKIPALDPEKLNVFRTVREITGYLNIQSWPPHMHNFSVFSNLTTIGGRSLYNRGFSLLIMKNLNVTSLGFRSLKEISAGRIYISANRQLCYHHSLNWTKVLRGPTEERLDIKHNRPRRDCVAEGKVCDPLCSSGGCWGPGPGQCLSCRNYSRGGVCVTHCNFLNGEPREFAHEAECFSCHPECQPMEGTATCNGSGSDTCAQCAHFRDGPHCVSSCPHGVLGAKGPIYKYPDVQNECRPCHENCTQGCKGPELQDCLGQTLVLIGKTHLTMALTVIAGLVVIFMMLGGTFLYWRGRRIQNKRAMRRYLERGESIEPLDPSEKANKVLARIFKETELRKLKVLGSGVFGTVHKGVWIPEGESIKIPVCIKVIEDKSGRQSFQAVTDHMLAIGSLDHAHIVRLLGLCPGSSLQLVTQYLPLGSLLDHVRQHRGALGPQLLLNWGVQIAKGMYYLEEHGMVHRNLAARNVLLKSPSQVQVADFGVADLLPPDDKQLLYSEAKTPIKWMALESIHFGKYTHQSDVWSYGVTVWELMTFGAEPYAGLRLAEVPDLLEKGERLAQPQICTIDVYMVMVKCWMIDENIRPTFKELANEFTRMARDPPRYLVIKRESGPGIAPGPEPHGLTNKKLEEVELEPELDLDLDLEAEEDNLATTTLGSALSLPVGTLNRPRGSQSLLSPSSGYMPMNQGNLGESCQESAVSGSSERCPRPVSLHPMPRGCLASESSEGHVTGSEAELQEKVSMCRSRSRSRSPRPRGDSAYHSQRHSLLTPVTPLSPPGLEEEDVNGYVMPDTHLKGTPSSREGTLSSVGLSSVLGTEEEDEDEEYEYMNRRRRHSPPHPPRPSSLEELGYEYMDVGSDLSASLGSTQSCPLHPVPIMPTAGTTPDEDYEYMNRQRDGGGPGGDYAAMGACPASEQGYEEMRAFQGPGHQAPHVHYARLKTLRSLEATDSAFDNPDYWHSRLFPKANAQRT
UniProt Q15303, whole entry R711C: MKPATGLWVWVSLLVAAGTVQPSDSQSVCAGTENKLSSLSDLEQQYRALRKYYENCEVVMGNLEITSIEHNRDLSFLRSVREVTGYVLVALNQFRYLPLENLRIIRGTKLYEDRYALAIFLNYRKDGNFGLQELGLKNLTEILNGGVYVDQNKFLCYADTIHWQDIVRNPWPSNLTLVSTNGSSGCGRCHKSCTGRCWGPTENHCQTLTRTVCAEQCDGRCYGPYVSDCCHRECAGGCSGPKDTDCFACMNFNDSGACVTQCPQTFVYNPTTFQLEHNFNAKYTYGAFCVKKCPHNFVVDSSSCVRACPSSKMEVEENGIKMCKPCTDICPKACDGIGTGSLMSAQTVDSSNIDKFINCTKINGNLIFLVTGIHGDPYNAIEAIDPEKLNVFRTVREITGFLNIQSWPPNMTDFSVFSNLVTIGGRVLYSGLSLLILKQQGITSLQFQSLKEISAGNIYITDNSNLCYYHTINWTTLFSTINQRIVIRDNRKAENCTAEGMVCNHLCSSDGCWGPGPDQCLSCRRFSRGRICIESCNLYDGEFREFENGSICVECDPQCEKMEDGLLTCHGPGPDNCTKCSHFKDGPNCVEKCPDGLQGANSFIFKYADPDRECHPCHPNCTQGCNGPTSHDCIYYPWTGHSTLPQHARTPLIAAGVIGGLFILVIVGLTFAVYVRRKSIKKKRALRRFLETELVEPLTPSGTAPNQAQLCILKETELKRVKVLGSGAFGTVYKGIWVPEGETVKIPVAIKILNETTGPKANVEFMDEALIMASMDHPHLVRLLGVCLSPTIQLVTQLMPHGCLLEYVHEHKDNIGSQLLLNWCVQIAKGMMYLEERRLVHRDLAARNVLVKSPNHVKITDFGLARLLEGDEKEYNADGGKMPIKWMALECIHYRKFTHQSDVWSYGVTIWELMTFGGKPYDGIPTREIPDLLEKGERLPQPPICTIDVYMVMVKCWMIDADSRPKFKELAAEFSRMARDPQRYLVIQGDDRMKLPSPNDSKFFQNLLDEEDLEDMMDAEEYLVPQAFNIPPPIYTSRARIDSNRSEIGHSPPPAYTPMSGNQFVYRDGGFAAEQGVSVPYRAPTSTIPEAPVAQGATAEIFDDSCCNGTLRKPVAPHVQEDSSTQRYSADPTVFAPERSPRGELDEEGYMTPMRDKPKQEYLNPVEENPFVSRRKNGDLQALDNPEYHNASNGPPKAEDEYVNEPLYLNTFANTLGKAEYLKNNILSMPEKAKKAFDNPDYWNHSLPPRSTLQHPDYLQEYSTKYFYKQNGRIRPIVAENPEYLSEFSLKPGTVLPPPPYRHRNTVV

Measured: kinase-Nluc reporter destabilization hit call

N#Cc1cn([C@@H]2O[C@H](CO)[C@@H](O)[C@H]2O)c2nc[nH]c(=O)c12 [Jaspamycin] (10 µM)
inactive: EGFR 0 | EGFR_G719S 0 | EGFR_G719S_T790M 0 | EGFR_L718V 0 | EGFR_L858R 0 | EGFR_L861Q 0 | EGFR_T790M 0 | EPHA2 = 0 | ERBB3 = 0 | [1] 0

COc1cc(/C=C/c2ccc(NC(=O)/C=C/c3cc(OC)c(OC)c(OC)c3)cc2)cc(OC)c1 (2.5 µM)
inactive: EGFR 0 | EGFR_G719S 0 | EGFR_G719S_T790M 0 | EGFR_L718V 0 | EGFR_L858R 0 | EGFR_L861Q 0 | EGFR_T790M 0 | EPHA2 = 0 | ERBB3 = 0 | [1] 0

CNS(=O)(=O)Nc1nccc(Cc2c(C)c3ccc(Oc4ncccn4)cc3oc2=O)c1F (10 µM)
inactive: EGFR 0 | EGFR_G719S 0 | EGFR_G719S_T790M 0 | EGFR_L718V 0 | EGFR_L858R 0 | EGFR_L861Q 0 | EGFR_T790M 0 | EPHA2 = 0 | ERBB3 = 0 | [1] 0

C=CC(=O)Nc1cccc(Oc2nc(Nc3ccc(N4CCN(C)CC4)cc3)ncc2Cl)c1 (2.5 µM)
inactive: EGFR 0 | EGFR_G719S 0 | EGFR_G719S_T790M 0 | EGFR_L718V 0 | EGFR_L858R 0 | EGFR_L861Q 0 | EGFR_T790M 0 | EPHA2 = 0 | ERBB3 = 0 | [1] 0

COc1cc(OC)c(/C=C/S(=O)(=O)Cc2ccc(OC)c(NCC(=O)O)c2)c(OC)c1 [Rigosertib (sodium)] (10 µM)
inactive: EGFR 0 | EGFR_G719S 0 | EGFR_G719S_T790M 0 | EGFR_L718V 0 | EGFR_L858R 0 | EGFR_L861Q 0 | EGFR_T790M 0 | EPHA2 = 0 | ERBB3 = 0 | [1] 0

2 entries drawn at random from the list so far, as already listed:
N#Cc1cn([C@@H]2O[C@H](CO)[C@@H](O)[C@H]2O)c2nc[nH]c(=O)c12 [Jaspamycin] (10 µM)
inactive: EGFR 0 | EGFR_G719S 0 | EGFR_G719S_T790M 0 | EGFR_L718V 0 | EGFR_L858R 0 | EGFR_L861Q 0 | EGFR_T790M 0 | EPHA2 = 0 | ERBB3 = 0 | [1] 0

CNS(=O)(=O)Nc1nccc(Cc2c(C)c3ccc(Oc4ncccn4)cc3oc2=O)c1F (10 µM)
inactive: EGFR 0 | EGFR_G719S 0 | EGFR_G719S_T790M 0 | EGFR_L718V 0 | EGFR_L858R 0 | EGFR_L861Q 0 | EGFR_T790M 0 | EPHA2 = 0 | ERBB3 = 0 | [1] 0

(listing goes on)

O=c1cc(-c2ccc(O)cc2)oc2cc(O)c([C@@H]3O[C@H](CO)[C@@H](O)[C@H](O)[C@H]3O)c(O)c12 [Isovitexin] (10 µM)
inactive: EGFR 0 | EGFR_G719S 0 | EGFR_G719S_T790M 0 | EGFR_L718V 0 | EGFR_L858R 0 | EGFR_L861Q 0 | EGFR_T790M 0 | EPHA2 = 0 | ERBB3 = 0 | [1] 0

N#C/C(=C\c1ccc[nH]1)c1ccc(Cl)c(Cl)c1 (2.5 µM)
inactive: EGFR 0 | EGFR_G719S 0 | EGFR_G719S_T790M 0 | EGFR_L718V 0 | EGFR_L858R 0 | EGFR_L861Q 0 | EGFR_T790M 0 | EPHA2 = 0 | ERBB3 = 0 | [1] 0

CC(C)(C)NS(=O)(=O)c1cncc(-c2cc(F)c3nc(N)nn3c2)c1 (10 µM)
inactive: EGFR 0 | EGFR_G719S 0 | EGFR_G719S_T790M 0 | EGFR_L718V 0 | EGFR_L858R 0 | EGFR_L861Q 0 | EGFR_T790M 0 | EPHA2 = 0 | ERBB3 = 0 | [1] 0

NC(=O)c1nc(-c2c(F)cccc2Cl)oc1Nc1ccc(C(=O)N2CCOCC2)cc1 (10 µM)
inactive: EGFR 0 | EGFR_G719S 0 | EGFR_G719S_T790M 0 | EGFR_L718V 0 | EGFR_L858R 0 | EGFR_L861Q 0 | EGFR_T790M 0 | EPHA2 = 0 | ERBB3 = 0 | [1] 0

C=C[C@H]1[C@H](O[C@@H]2O[C@H](CO)[C@@H](O)[C@H](O)[C@H]2O)OC=C(C(=O)OC)[C@H]1CCOC(=O)c1cc(O)c(O)c(O)c1 [Cornuside] (10 µM)
inactive: EGFR 0 | EGFR_G719S 0 | EGFR_G719S_T790M 0 | EGFR_L718V 0 | EGFR_L858R 0 | EGFR_L861Q 0 | EGFR_T790M 0 | EPHA2 = 0 | ERBB3 = 0 | [1] 0

O=C1NC(=O)C(c2ccccc2[N+](=O)[O-])=C1Nc1ccc(O)c(Cl)c1 (10 µM)
inactive: EGFR 0 | EGFR_G719S 0 | EGFR_G719S_T790M 0 | EGFR_L718V 0 | EGFR_L858R 0 | EGFR_L861Q 0 | EGFR_T790M 0 | EPHA2 = 0 | ERBB3 = 0 | [1] 0

CNCCOc1ccccc1C(C)(C)Nc1nccn(-c2cc(C(=O)NC3CC3)ccc2C)c1=O [p38α inhibitor 2] (10 µM)
inactive: EGFR 0 | EGFR_G719S 0 | EGFR_G719S_T790M 0 | EGFR_L718V 0 | EGFR_L858R 0 | EGFR_L861Q 0 | EGFR_T790M 0 | EPHA2 = 0 | ERBB3 = 0 | [1] 0

C=CC(=O)Nc1cccc(Nc2nc(Nc3ccc(Oc4ccnc(C(=O)NC)c4)cc3)ncc2F)c1 (2.5 µM)
inactive: EGFR 0 | EGFR_G719S 0 | EGFR_G719S_T790M 0 | EGFR_L718V 0 | EGFR_L858R 0 | EGFR_L861Q 0 | EGFR_T790M 0 | EPHA2 = 0 | ERBB3 = 0 | [1] 0

O=C(O)/C=C/c1cc(Br)c(Br)c(Br)c1Br (10 µM)
inactive: EGFR 0 | EGFR_G719S 0 | EGFR_G719S_T790M 0 | EGFR_L718V 0 | EGFR_L858R 0 | EGFR_L861Q 0 | EGFR_T790M 0 | EPHA2 = 0 | ERBB3 = 0 | [1] 0

NC(=O)c1ccc2nc(-c3ccc(C4(N)CCC4)cc3)c(-c3ccccc3)n2n1 (10 µM)
inactive: EGFR 0 | EGFR_G719S 0 | EGFR_G719S_T790M 0 | EGFR_L718V 0 | EGFR_L858R 0 | EGFR_L861Q 0 | EGFR_T790M 0 | EPHA2 = 0 | ERBB3 = 0 | [1] 0

O=C(CC(c1ccccc1)C(C(=O)O)C(=O)O)c1ccc(C(F)(F)F)cc1 (stereo not given) (10 µM)
inactive: EGFR 0 | EGFR_G719S 0 | EGFR_G719S_T790M 0 | EGFR_L718V 0 | EGFR_L858R 0 | EGFR_L861Q 0 | EGFR_T790M 0 | EPHA2 = 0 | ERBB3 = 0 | [1] 0
